Reference: patent EP0626451A2
Results are given in words; binding and its absence hold for the method and conditions named. Some entries that bind do so weakly or less than the wild type.

Amino acid sequences for entries named in this document (tags omitted). Residues count along the entry.
UniProt P30886, residues 283-426: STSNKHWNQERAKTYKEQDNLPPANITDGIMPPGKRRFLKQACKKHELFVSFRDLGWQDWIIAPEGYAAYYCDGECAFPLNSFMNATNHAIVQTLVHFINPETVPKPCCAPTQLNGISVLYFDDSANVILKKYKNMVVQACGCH

B1: xBMP4 subunit (reduced monomer, bands of about 19 K and about 17.5 K) (ligand, Xenopus laevis, UniProt P30885 288-401, looked up)
chain: SPKQQRPRKKNKHCRRHSLYVDFSDVGWNDWIVAPPGYQAFYCHGDCPFPLADHLNSTNHAIVQTLVNSVNSSIPKACCVPTELSAISMLYLDEYDKVVLKNYQEMVVEGCGCR

Columns and labels:
[1] = molecular target: xBMP7 subunit (reduced monomer, bands of about 23 to 24 K and about 21 K) (Xenopus laevis) (UniProt P30886); test: SDS-PAGE under non-reducing against reducing conditions
[2] = molecular target: xBMP4 subunit (reduced monomer, bands of about 19 K and about 17.5 K) (Xenopus laevis) (UniProt P30885); test: as above
[3] = molecular target: xBMP7 subunit (reduced monomer, bands of about 23 to 24 K and about 21 K) (Xenopus laevis) (UniProt P30886); test: SDS-PAGE under non-reducing against reducing conditions with Western blot; 36 K band gives xBMP4 and xBMP7 bands on reduction

Molecule	binding [1]	binding [2]	binding [3]
xBMP7 subunit (reduced monomer, bands of about 23 to 24 K and about 21 K) (from UniProt P30886 283-426) (ligand)	binds	–	–
B1	–	binds	binds
